# PubChem BioAssay AID1259308 | NCATS – 2017
# Screen: 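Candidate targets for better recombinant protein yield in mammalian cells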 (primary screen)
# Cells: human HEK293 embryonic kidney cells stably expressing firefly luciferase (HEK-CMV-Luc2-Hygro)
# Reagents: single siRNA against human genes, 0.8 pmol siRNA per well
# Timing: 72 h
# Detection: 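Reporter luminescence and viable-cell signal on separate replicate plates, given as percent of non-targeting control and median/MAD z-scores, plus per-cell luciferase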
# Reading the numbers: total luciferase, z-score and total luciferase, % of control: higher = more reporter protein produced; luciferase per cell, z-score: higher = more reporter output per viable cell; viable cells, % of control: higher = more viable cells
# Active means: 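An siRNA counts as active if its total luciferase robust z-score exceeds 3; genes with two or more such siRNAs out of three were retested with fresh siRNAs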
# Meaning of the calls: active = raised luciferase; inactive = no rise
# Here is one part, drawn at random, of about 59,000 reagents tested. About 1,510 of all reagents (2.6%) were called active. 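Calls use total luciferase alone and ignore viability, so some active siRNAs may act by altering cell number.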 Entries without a mark were called inactive.
gene symbol,PubChem SID,"total luciferase, z-score","total luciferase, % of control","luciferase per cell, z-score","viable cells, % of control"
INTS1,SID160737744,5.86 (active),198,3.72,83.1
INTS1,SID160737745,2.27,127,1.11,106
INTS1,SID160737746,3.31 (active),148,2.05,96.3
TUBG2,SID160738504,-1.21,57.7,-0.693,77.4
TUBG2,SID160738505,-0.217,77.6,-0.638,103
TUBG2,SID160738507,0.397,89.8,0.547,86.9
ERGIC2,SID160740509,1.37,109,0.54,106
ERGIC2,SID160740510,0.524,92.3,0.13,99.7
ERGIC2,SID160740511,-1.24,57.3,-1.38,91.9
LPAR5,SID160745646,1.18,105,1.01,90.3
LPAR5,SID160745647,0.234,86.5,-0.0578,98.2
LPAR5,SID160745648,0.467,91.2,0.438,90.8
OCLN,SID160778340,-0.344,75,-0.0704,85.4
OCLN,SID160778341,-0.017,81.5,-0.112,93.9
OCLN,SID160778342,0.531,92.5,1.2,75.4

Quoted from the entries so far for reference:
gene symbol,PubChem SID,"total luciferase, z-score","total luciferase, % of control","luciferase per cell, z-score","viable cells, % of control"
INTS1,SID160737744,5.86 (active),198,3.72,83.1
INTS1,SID160737745,2.27,127,1.11,106
INTS1,SID160737746,3.31 (active),148,2.05,96.3
TUBG2,SID160738504,-1.21,57.7,-0.693,77.4

Further entries follow.
gene symbol,PubChem SID,"total luciferase, z-score","total luciferase, % of control","luciferase per cell, z-score","viable cells, % of control"
MARK2P10,SID160767465,0.333,88.5,0.947,77.1
MARK2P10,SID160767466,-0.963,62.7,-0.865,88
MARK2P10,SID160767467,0.885,99.5,0.435,99.1
NME1,SID160731294,-0.994,62.1,-1.25,96.3
NME1,SID160778104,0.0928,83.7,3.51,37.2
NME1,SID160778105,0.194,85.7,0.126,92.7
OR4E2,SID160732879,-1.02,61.5,-0.821,85.4
OR4E2,SID160738141,-0.161,78.7,-0.0553,89.2
OR4E2,SID160738142,0.423,90.3,-0.142,105
DOK3,SID160734961,0.241,86.7,0.0724,95
DOK3,SID160749796,0.84,98.6,0.577,94.6
DOK3,SID160749797,1.68,115,1.2,94
ANO7,SID160733474,-1.01,61.8,-0.233,73.4
ANO7,SID160739678,0.421,90.3,0.161,96.7
ANO7,SID160739679,0.78,97.4,1.04,82.7
WHAMM,SID160732393,-0.29,76.1,-0.538,98
WHAMM,SID160756094,0.347,88.8,0.435,88.5
WHAMM,SID160756095,0.47,91.2,0.469,90.1
RYR3,SID160716271,0.235,86.6,-0.271,104
RYR3,SID160716274,0.502,91.9,0.411,92.1
RYR3,SID160716275,-0.197,78,-1.02,114
HEATR4,SID160766838,0.862,99,0.544,95.9
HEATR4,SID160766839,0.625,94.3,0.296,97.5
HEATR4,SID160766840,1.53,112,0.864,100
